Sequences and labels used below:
T1: Cox6 with a tandem hemagglutinin plus protein C tag (S. cerevisiae) (UniProt P00427)
T1 sequence: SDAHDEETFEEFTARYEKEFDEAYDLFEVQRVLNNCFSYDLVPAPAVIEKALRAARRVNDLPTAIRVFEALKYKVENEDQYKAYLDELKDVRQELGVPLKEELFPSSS

B1: Cox2 (protein, UniProt P00410 16-251)
chain: DVPTPYACYFQDSATPNQEGILELHDNIMFYLLVILGLVSWMLYTIVMTYSKNPIAYKYIKHGQTIEVIWTIFPAVILLIIAFPSFILLYLCDEVISPAMTIKAIGYQWYWKYEYSDFINDSGETVEFESYVIPDELLEEGQLRLLDTDTSMVVPVDTHIRFVVTAADVIHDFAIPSLGIKVDATPGRLNQVSALIQREGVFYGACSELCGTGHANMPIKIEAVSLPKFLEWLNEQ
B2: cytochrome b (protein, UniProt P00163 1-385)
chain: MAFRKSNVYLSLVNSYIIDSPQPSSINYWWNMGSLLGLCLVIQIVTGIFMAMHYSSNIELAFSSVEHIMRDVHNGYILRYLHANGASFFFMVMFMHMAKGLYYGSYRSPRVTLWNVGVIIFILTIATAFLGYCCVYGQMSHWGATVITNLFSAIPFVGNDIVSWLWGGFSVSNPTIQRFFALHYLVPFIIAAMVIMHLMALHIHGSSNPLGITGNLDRIPMHSYFIFKDLVTVFLFMLILALFVFYSPNTLGHPDNYIPGNPLVTPASIVPEWYLLPFYAILRSIPDKLLGVITMFAAILVLLVLPFTDRSVVRGNTFKVLSKFFFFIFVFNFVLLGQIGACHVEVPYVLMGQIATFIYFAYFLIIVPVISTIENVLFYIGRVNK
B3: Atp9 with the V68C and S69C mutations (protein, UniProt P61829 1-76)
chain: MQLVLAAKYIGAGISTIGLLGAGIGIAIVFAALINGVSRNPSIKDTVFPMAILGFALSEATGLFCLMCCFLLLFGV

No constants are given. Whether binding was seen depends on the method and setting. In cells and extracts the contact can be indirect. Some entries that bind do so weakly or less than the wild type. Tags and fused reporters may be left off the sequences shown.

The target of the experiment is T1, Cox6 with a tandem hemagglutinin plus protein C tag (S. cerevisiae). Nature of the experiment: co-IP; Cox6-HAC held on protein C antibody beads; 2% digitonin extracts of mitochondria labelled with 35S-methionine/cysteine; eluted with EDTA; SDS-PAGE and BN-PAGE, autoradiography; strains with Cox6-HAC without or with mss51, mss51 pet494 or cox5a null mutations, cells grown with or without 2 mg/ml chloramphenicol, pulse and chase.
On to B1, for which the binding result was “binds”.

On to B2, for which the binding result is on record as “binds”.

As to B3, the binding result is “binds”.

The record behind these values is publication PMC7228087.
